These are yes or no findings as the source states them, for the method shown. Some entries that bind do so weakly or less than the wild type.
Molecular target: mucin Muc6, murine (mouse (endogenous in murine caecum/colon)) (UniProt Q80T03)
Assay: SEC; extract of murine caecum plus total colon (single individual) on Superdex 75 HL; Tff2 by Western blot of fractions after reducing and non-reducing SDS-PAGE; Muc6 by lectin GSA-II after 1% AgGE of fractions B6-C2

The chains behind the UniProt entries cited, without tags or fusion partners. Residues count along the entry.
UniProt Q80T03, residues 23-2850: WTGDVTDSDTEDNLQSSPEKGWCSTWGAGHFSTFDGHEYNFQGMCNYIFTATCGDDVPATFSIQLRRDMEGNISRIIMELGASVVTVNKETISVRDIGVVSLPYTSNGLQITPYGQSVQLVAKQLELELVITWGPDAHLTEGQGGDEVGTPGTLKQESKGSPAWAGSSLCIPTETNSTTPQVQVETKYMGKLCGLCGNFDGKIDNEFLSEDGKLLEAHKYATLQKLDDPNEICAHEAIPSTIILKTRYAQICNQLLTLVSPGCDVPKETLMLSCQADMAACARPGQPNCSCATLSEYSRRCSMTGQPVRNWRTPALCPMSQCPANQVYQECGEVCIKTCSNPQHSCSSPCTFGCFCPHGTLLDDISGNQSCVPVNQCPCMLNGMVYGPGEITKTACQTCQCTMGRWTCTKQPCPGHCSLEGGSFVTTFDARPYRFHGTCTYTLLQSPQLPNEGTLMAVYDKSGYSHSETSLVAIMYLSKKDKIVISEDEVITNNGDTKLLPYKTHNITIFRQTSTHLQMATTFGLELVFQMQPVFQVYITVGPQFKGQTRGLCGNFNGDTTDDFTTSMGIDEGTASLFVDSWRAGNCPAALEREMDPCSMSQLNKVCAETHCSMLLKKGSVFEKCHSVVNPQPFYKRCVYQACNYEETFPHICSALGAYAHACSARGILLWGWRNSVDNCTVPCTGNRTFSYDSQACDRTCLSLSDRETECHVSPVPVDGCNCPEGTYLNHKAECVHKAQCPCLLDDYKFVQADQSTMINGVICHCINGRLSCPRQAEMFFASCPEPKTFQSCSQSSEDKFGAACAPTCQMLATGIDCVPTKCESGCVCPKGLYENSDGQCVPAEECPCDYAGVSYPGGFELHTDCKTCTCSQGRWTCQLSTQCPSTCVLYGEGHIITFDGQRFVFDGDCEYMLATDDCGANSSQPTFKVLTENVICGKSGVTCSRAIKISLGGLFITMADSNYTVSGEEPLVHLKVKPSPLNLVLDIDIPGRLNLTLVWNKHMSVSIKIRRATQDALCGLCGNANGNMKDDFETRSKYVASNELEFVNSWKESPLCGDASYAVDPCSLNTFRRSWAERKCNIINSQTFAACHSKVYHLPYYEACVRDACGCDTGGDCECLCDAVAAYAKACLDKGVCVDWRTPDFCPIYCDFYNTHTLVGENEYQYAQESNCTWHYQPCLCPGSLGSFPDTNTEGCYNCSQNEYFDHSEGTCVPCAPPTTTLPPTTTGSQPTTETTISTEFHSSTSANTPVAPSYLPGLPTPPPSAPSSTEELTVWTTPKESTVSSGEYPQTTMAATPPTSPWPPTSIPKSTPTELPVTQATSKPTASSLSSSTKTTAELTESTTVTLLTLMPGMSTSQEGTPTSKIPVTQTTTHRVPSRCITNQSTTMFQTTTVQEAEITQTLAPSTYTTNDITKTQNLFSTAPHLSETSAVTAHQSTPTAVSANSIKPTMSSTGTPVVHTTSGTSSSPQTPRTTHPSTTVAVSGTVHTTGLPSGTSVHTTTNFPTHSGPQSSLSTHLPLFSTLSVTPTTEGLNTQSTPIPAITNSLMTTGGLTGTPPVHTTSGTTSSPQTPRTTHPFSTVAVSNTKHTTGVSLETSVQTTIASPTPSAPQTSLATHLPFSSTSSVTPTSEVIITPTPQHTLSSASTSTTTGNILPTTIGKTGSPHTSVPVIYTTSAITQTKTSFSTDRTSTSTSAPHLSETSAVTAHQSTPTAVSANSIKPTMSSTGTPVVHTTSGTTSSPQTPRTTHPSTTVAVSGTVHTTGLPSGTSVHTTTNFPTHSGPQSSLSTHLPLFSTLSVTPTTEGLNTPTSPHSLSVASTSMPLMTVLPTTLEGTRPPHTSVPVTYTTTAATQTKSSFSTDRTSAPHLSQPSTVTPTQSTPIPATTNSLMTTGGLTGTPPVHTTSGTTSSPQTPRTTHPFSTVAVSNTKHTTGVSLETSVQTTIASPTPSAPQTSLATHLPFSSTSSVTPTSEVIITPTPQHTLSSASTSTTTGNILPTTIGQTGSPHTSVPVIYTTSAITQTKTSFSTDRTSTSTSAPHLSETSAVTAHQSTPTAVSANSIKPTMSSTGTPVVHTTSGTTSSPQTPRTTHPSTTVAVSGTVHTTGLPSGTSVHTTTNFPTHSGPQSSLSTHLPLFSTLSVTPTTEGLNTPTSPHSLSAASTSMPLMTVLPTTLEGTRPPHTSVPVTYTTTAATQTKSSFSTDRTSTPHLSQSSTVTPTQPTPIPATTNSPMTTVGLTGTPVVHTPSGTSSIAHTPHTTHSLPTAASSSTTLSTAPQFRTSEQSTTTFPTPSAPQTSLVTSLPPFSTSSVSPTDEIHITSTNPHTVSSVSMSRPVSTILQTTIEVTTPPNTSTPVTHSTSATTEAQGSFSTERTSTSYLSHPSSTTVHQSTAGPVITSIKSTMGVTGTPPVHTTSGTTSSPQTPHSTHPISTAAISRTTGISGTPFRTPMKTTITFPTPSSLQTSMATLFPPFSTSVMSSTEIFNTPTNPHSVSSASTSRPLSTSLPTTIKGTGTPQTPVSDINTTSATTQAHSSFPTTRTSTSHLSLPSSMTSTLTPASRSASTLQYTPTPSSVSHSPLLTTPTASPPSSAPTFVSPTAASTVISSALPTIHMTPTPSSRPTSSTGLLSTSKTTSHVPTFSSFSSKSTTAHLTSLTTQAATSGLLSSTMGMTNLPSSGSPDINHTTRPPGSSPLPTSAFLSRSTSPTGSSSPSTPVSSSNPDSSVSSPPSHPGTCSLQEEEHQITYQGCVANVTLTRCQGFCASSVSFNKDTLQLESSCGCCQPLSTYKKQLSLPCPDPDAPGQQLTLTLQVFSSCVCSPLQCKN

binding: binds
B1: Tff2 (trefoil factor family peptide 2), murine (protein, UniProt Q03404 24-129)
chain: EKPSPCRCSRLTPHNRKNCGFPGITSEQCFDLGCCFDSSVAGVPWCFHPLPNQESEQCVMEVSARKNCGYPGISPEDCASRNCCFSNLIFEVPWCFFPQSVEDCHY

— paper PMC10454331
